Results are given in words; binding and its absence hold for the method and conditions named. A result given as binding can be weak or reduced; the word gives no strength.
What was measured:
[1] = biological target: recombinant SAS1B splice variant C (aa 1-436) (human) (UniProt Q6HA08); test: western blot (FIG. 22)
[2] = biological target: mCherry-SAS1B fusion protein (human); test: Western blot of cell lysates (lane: COS cells with the SAS1B-mCherry construct lacking the signal peptide), mAb 1 µg/ml

Chains of the proteins cited; added tags and fusions are not shown. Lines headed by an entry give the natural chain unless they say otherwise; changes in a name come on top.
UniProt Q6HA08: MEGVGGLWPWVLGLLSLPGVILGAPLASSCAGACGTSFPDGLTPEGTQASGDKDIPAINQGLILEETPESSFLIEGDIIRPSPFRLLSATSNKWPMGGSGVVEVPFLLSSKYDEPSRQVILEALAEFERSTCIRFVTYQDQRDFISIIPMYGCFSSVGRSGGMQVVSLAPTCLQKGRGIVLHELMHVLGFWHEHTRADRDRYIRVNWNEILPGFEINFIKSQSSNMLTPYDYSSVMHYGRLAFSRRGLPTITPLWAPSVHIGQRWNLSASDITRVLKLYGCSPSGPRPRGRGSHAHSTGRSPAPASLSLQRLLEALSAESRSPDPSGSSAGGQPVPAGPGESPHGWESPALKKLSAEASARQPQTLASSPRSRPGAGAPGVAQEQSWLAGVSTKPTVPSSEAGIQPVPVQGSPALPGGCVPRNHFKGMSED

B1: anti-human SAS1B murine monoclonal antibody SB4 (antibody, IgG2a, V domains shown)
VH: EVQLQQSGPELVKPGSSVKISCKPSGYTFTDYNMVWMKQSHGKSLEWIGAINPNNGGTTYNQKFKGKATLTVDKSSSTAYMELRSLTSEDSAVYYCAPNWDWFAYWGQGTLVTVSA
VL: DVLMTQTPLSLPVSLGDQASISCRSSQSILHSNGNTYLEWYLQKPGQSPKLLIYKVSNRFSGVPDRFSGSGSGTDFTLKISRVEAEDLGVYYCFQGSHVPFTFGSGTKLEIK
notes: Mouse hybridoma antibody, isotype IgG2a-k; also called SB4 mAb
- binding [1]: binds
- binding [2]: binds

B2: anti-human SAS1B murine monoclonal antibody SB2 (antibody, IgG2b, V domains shown)
VH: EVQLQQSGPELVKPGSSVKISCKASGYTFTDYNMVWVKQSHGKSLEWIGAVNPNNGGTSYNQKFKGKATLTVDKSSSTAYMELRSLTSEDSAVYYCVPNWDWFAYWGQGTLVTVSA
VL: DVLMTQTPLSLPVSLGDQASISCRSSQSLVHSNGNTYLEWYLQKPGQSPNLLIYKVSNRFSGVPDRFSGSGSGTDFTLKISRVEAEDLGVYYCFQGSHVPFTFGSGTKLEIK
notes: also called SB2 mAb
- binding [1]: binds
- binding [2]: binds

B3: anti-human SAS1B murine monoclonal antibody SB3 (antibody, IgG2b, V domains shown)
VH: EVQLQQSGPELVKPGSSVKISCKASGYTFTDYNMVWVKQSHGKSLEWIGAVNPNNGGTSYNQKFKGKATLTVDKSSSTAYMELRSLTSEDSAVYYCVPNWDWFAYWGQGTLVTVSA
VL: DVLMTQTPLSLPVSLGDQASISCRSSQSLVHSNGNTYLEWYLQKPGQSPNLLIYKVSNRFSGVPDRFSGSGSGTDFTLKISRVEAEDLGVYYCFQGSHVPFTFGSGTKLEIK
notes: also called SB3 mAb
- binding [1]: binds
- binding [2]: binds

B4: anti-human SAS1B murine monoclonal antibody SB5 (antibody, IgG2b, V domains shown)
VH: EVQLQQSGPELVKPGSSVKISCKPSGYTFTDYNMVWMKQSHGKSLEWIGAINPNNGGTTYNQKFKGKATLTVDKSSSTAYMELRSLTSEDSAVYYCAPNWDWFAYWGQGTLVTVSA
VL: DVLMTQIPLSLPVSLGDQASISCRSSQSILHSNGNTYLEWYLQKPGQSPKLLIYKVSNRFSGVPDRFSGSGSGTDFTLKISRVEAEDLGVYYCFQGSHVPFTFGSGTKLEIK
notes: Mouse hybridoma antibody, isotype IgG2b-k; also called SB5 mAb
- binding [1]: binds

B5: anti-human SAS1B murine monoclonal antibody SB6 (antibody, IgG2b, V domains shown)
VH: EVQLQQSGPELVKPGSSVKISCKPSGYTFTDYNMVWMKQSHGKSLEWIGAINPNNGGTTYNQKFKGKATLTVDKSSSTAYMELRSLTSEDSAVYYCAPNWDWFAYWGQGTLVTVSA
VL: DVLMTQIPLSLPVSLGDQASISCRSSQSILHSNGNTYLEWYLQKPGQSPKLLIYKVSNRFSGVPDRFSGSGSGTDFTLKISRVEAEDLGVYYCFQGSHVPFTFGSGTKLEIK
- binding [1]: binds
- binding [2]: binds

B6: anti-human SAS1B murine monoclonal antibody SB7 (antibody, IgG2b, V domains shown)
VH: EVQLQQSGPELVKPGSSVKISCKPSGYTFTDYNMVWMKQSHGKSLEWIGAINPNNGGTTYNQKFKGKATLTVDKSSSTAYMELRSLTSEDSAVYYCAPNWDWFAYWGQGTLVTVSA
VL: DVLMTQIPLSLPVSLGDQASISCRSSQSILHSNGNTYLEWYLQKPGQSPKLLIYKVSNRFSGVPDRFSGSGSGTDFTLKISRVEAEDLGVYYCFQGSHVPFTFGSGTKLEIK
- binding [1]: binds
- binding [2]: binds

Source: US20190194345A1 (UNIVERSITY OF VIRGINIA PATENT FOUNDATION, published 2019)
